Assay [1] concerns the target T1, TRIM56, endogenous mouse (mouse (endogenous in iWAT)) (UniProt Q80VI1).
T1 sequence: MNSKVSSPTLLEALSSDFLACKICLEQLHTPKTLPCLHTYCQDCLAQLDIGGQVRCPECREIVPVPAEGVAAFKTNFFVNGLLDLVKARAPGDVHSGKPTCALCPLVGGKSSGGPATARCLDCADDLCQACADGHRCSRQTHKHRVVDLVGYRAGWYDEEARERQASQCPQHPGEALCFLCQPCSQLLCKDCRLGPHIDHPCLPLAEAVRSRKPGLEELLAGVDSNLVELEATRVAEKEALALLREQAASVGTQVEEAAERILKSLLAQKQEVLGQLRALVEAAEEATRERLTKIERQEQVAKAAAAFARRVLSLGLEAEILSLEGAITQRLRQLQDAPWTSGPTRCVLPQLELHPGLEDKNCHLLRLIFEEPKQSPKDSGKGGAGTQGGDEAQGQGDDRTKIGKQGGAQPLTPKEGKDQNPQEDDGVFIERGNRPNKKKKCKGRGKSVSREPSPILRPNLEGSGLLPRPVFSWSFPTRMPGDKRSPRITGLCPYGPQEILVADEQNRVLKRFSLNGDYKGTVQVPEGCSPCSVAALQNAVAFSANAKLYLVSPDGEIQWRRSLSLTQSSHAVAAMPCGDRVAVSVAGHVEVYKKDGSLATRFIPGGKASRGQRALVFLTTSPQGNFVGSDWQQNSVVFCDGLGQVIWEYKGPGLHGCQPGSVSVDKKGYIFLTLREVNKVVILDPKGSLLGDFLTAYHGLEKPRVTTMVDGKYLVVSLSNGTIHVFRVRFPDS
The assay is described as follows: co-IP; iWAT lysates of mice given CL316243 injections for 5 days or PBS; lysis buffer without SDS, antibody or IgG control overnight at 4 °C, Protein A/G magnetic beads.

Sequences of proteins named here, by UniProt entry; tags and fusion partners are left off.
UniProt Q04726: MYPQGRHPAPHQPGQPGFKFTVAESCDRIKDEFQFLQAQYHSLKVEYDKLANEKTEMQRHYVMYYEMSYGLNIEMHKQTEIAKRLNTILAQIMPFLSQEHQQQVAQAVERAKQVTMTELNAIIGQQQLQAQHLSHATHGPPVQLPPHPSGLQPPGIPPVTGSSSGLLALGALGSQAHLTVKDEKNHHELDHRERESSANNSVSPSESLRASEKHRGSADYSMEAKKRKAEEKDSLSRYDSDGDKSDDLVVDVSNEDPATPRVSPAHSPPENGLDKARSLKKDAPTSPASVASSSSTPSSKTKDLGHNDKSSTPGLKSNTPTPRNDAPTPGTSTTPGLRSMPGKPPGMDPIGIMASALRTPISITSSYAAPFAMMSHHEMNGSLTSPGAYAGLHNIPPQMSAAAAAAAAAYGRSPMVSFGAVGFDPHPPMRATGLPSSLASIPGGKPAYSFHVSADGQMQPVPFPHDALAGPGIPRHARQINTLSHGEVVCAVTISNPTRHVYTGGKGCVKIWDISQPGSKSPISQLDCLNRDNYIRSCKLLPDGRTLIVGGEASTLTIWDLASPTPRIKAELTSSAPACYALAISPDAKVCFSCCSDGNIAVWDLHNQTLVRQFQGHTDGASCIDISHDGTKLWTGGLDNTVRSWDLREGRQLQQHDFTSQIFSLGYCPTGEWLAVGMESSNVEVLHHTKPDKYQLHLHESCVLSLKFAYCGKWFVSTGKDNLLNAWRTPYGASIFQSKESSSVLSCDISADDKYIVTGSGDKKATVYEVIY
UniProt Q08122: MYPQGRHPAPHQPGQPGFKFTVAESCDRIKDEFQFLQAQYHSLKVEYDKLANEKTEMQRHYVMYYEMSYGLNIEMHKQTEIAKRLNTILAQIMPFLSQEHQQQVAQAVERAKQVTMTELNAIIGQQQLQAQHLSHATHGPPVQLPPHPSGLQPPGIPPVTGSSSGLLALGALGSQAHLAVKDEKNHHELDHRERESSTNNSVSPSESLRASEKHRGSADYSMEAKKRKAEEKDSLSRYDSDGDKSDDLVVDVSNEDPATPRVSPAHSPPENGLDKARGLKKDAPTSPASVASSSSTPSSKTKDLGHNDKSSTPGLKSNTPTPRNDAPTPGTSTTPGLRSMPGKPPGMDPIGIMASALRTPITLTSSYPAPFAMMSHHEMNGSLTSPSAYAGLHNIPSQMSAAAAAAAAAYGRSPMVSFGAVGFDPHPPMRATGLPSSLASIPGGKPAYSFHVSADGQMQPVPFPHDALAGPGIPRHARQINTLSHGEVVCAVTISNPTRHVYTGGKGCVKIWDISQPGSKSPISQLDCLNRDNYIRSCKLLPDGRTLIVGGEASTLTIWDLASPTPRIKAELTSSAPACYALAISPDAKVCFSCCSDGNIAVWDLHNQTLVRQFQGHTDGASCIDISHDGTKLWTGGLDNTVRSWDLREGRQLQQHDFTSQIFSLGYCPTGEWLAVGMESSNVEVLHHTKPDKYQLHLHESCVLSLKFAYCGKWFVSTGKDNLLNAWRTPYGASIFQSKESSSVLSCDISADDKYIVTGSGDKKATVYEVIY

In another assay the target is GST-TLE3, human (human) (UniProt Q04726). The assay is described as follows: pull-down; GST pull-down; purified FLAG-TRIM56 co-incubated in vitro with GST-TLE3 or GST; both purified.
A further assay addresses HA-TLE3 (human) (UniProt Q04726). Kind of assay: co-IP; HEK293T cells co-transfected with FLAG-tagged TRIM56 (full length or truncated fragments) and HA-tagged TLE3; immunoprecipitation.

These are yes or no findings as the source states them, for the method shown. For some of these results: In cells and extracts the contact can be indirect. Some results given as binding are weak or reduced against the parent protein; the word gives no strength. For some of these results: Tags and fused reporters may be left off the sequences shown.

In the case of “transducin-like enhancer protein 3 (TLE3), endogenous mouse (from UniProt Q08122 1-772)”, the binding result in assay [1] is reported as “binds”.

B1: FLAG-TRIM56, human, full length (enzyme, UniProt Q9BRZ2 1-755)
chain: MVSHGSSPSLLEALSSDFLACKICLEQLRAPKTLPCLHTYCQDCLAQLADGGRVRCPECRETVPVPPEGVASFKTNFFVNGLLDLVKARACGDLRAGKPACALCPLVGGTSTGGPATARCLDCADDLCQACADGHRCTRQTHTHRVVDLVGYRAGWYDEEARERQAAQCPQHPGEALRFLCQPCSQLLCRECRLDPHLDHPCLPLAEAVRARRPGLEGLLAGVDNNLVELEAARRVEKEALARLREQAARVGTQVEEAAEGVLRALLAQKQEVLGQLRAHVEAAEEAARERLAELEGREQVARAAAAFARRVLSLGREAEILSLEGAIAQRLRQLQGCPWAPGPAPCLLPQLELHPGLLDKNCHLLRLSFEEQQPQKDGGKDGAGTQGGEESQSRREDEPKTERQGGVQPQAGDGAQTPKEEKAQTTREEGAQTLEEDRAQTPHEDGGPQPHRGGRPNKKKKFKGRLKSISREPSPALGPNLDGSGLLPRPIFYCSFPTRMPGDKRSPRITGLCPFGPREILVADEQNRALKRFSLNGDYKGTVPVPEGCSPCSVAALQSAVAFSASARLYLINPNGEVQWRRALSLSQASHAVAALPSGDRVAVSVAGHVEVYNMEGSLATRFIPGGKASRGLRALVFLTTSPQGHFVGSDWQQNSVVICDGLGQVVGEYKGPGLHGCQPGSVSVDKKGYIFLTLREVNKVVILDPKGSLLGDFLTAYHGLEKPRVTTMVDGRYLVVSLSNGTIHIFRVRSPDS
For the molecule B1, the binding result with GST-TLE3, human (human) is given as “binds”; with HA-TLE3 (human), “binds”.

B2: FLAG-TRIM56 truncated fragment, amino acids 1 to 521 (domain or fragment, UniProt Q9BRZ2 1-521)
chain: MVSHGSSPSLLEALSSDFLACKICLEQLRAPKTLPCLHTYCQDCLAQLADGGRVRCPECRETVPVPPEGVASFKTNFFVNGLLDLVKARACGDLRAGKPACALCPLVGGTSTGGPATARCLDCADDLCQACADGHRCTRQTHTHRVVDLVGYRAGWYDEEARERQAAQCPQHPGEALRFLCQPCSQLLCRECRLDPHLDHPCLPLAEAVRARRPGLEGLLAGVDNNLVELEAARRVEKEALARLREQAARVGTQVEEAAEGVLRALLAQKQEVLGQLRAHVEAAEEAARERLAELEGREQVARAAAAFARRVLSLGREAEILSLEGAIAQRLRQLQGCPWAPGPAPCLLPQLELHPGLLDKNCHLLRLSFEEQQPQKDGGKDGAGTQGGEESQSRREDEPKTERQGGVQPQAGDGAQTPKEEKAQTTREEGAQTLEEDRAQTPHEDGGPQPHRGGRPNKKKKFKGRLKSISREPSPALGPNLDGSGLLPRPIFYCSFPTRMPGDKRSPRITGLCPFGPREI
Turning to B2, in the assay with HA-TLE3 (human), the binding entry is “no binding”.

The values above are taken from paper PMC11967773.
